Experimental data reported in US20050095239A1, “Methods and compositions for treating Alzheimer's disease” (priority 2002, published 2005).
At least one compound was matched to its structure with a doubt left.

What was measured:
[1] = tested on: ABCA1 protein expression in Neuro2A cells; assay: ABCA1 immunoblot of Neuro2A cells treated with retinoic acid and oxysterols; type: cell-based, mouse; settings: compound alone, some experiments
Procedure: Cell culture. Mouse Neuro2A (neuroblastoma) cells and human IMR-32 (neuroblastoma) cells (American Type Culture Collection, Manassas, Va.) were cultured in Optimem (Gibco, Invitrogen Life Technologies, Carlsbad, Calif.) supplemented with 10% fetal bovine serum. Mouse BV-2 (microglial) and rat C6 (glioma) cells were cultured in Dulbecco's modified Eagle's medium supplemented with 5% fetal bovine serum. Mouse primary neuronal cultures were generated as described (27). Briefly, cortical neurons were isolated from embryonic day 16 Swiss-Webster mice. Individual cortices was dissociated in calcium-free saline and plated on poly-D-lysine (Sigma) coated tissue culture dishes at the density of 1.5×10^6 cell/ml. The neurons were grown in Neurobasal Media (Gibco BRL) plus 10% fetal bovine serum. One hour after plating, medium with serum was replaced with medium containing B-27 supplement (Gibco BRL). Western blot. Cells were lysed in 250 mM sucrose, 10 mM HEPES (pH 7.4), supplemented with complete protease inhibitors (Sigma Chemical Co). Protein levels were quantified by the BCA assay (Pierce, Rockford, Ill.), and samples of 50 μg were held in SDS loading buffer with 2.5% β-mercaptoethanol for 30 min at room temperature, but were not boiled prior to loading. Proteins were separated by SDS-6% polyacrylamide gel electrophoresis and transferred to nitrocellulose. […]

[2] = tested on: 24S-hydroxycholesterol; settings: reference 55; cited from earlier work

Compound: CC1=C(/C=C/C(C)=C/C=C/C(C)=C/C(=O)O)C(C)(C)CCC1 [retinoic acid, 9-cis-Retinoic acid]
- up-regulation of ABCA1 in cells treated only with the one compound [1]: never

Compound: CCC(C)(C)C(=O)O[C@H]1C[C@@H](C)C=C2C=C[C@H](C)[C@H](CC[C@@H]3C[C@@H](O)CC(=O)O3)[C@H]21 [simvastatin]
- 24S-hydroxycholesterol in individuals taking the drug [2]: reduced
